Measured values published in PubChem BioAssay AID445 (National Center for Advancing Translational Sciences (NCATS), 2006).
Some of the results follow. The main result of the screen is listed elsewhere. These columns were measured beside it and carry no call. Compounds called inactive in the main read-out are mostly missing here. The note in brackets gives the kind of curve behind each potency; many fits are weak.

Test: IkB Signaling
Details: ABC-DLBCL IkBa-CBG/CBR dual luciferase ratio (green luciferase fused to IkBa over red control in OCI-Ly3 lymphoma cells), 4 h; measured here: control luc red channel unless noted
How it was run: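 In this assay, an IκBα–CBG68 fusion accumulates when IKK-driven degradation is blocked; native CBR normalizes for cell number. OCI-Ly3 cells were treated 4 h with compound and doxycycline, then green and red light read after Chroma-Glo addition.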

With CCOc1ccccc1Nc1cc(-c2ccccc2)nc(C)n1 as the molecule, how does the AC50 read?
Its AC50 is 31.6 µM [falling, single point].

For CC(=O)C(C(C)=O)c1c(Cl)c(O)c(O)c2c(C(=O)c3ccccc3)coc12, which AC50 is on record?
Its AC50 is 10 µM [falling, partial curve].

With COc1ccc(-n2ncc3c(NCCC4=CCCCC4)ncnc32)cc1 as the molecule, how does the AC50 read?
Its AC50 is 5.01 µM [falling, full curve].

Which AC50 does the source give for NC(=O)c1c(NC(=O)COC(=O)CSc2nnc(-c3ccc(Cl)cc3)o2)sc2c1CCC2 here?
Its AC50 is 31.6 µM [falling, partial curve].

With COC(=O)CCc1c(C)c(C(=O)c2ccco2)c2ccccn12 as the molecule, how does the AC50 read?
Its AC50 is 31.6 µM [rising, single point] [measured here: IkB-luc green channel].

Which AC50 does the source give for Cc1ccc(N2CC(C(=O)Nc3ccc(Br)cc3)CC2=O)cc1 (stereo not drawn) here?
The AC50 was 7.94 µM [falling, partial curve, poor fit].

Which AC50 does the source give for CCC1=Nc2cc(C(=O)NC3CCCC3)ccc2Sc2ccc(Br)cc21 here?
The AC50 was 6.31 µM [rising, single point] [measured here: IkB-luc green channel].

With COc1ccc(C(=O)n2nc(-c3ccco3)nc2NCc2cccs2)cc1 as the molecule, how does the AC50 read?
Its AC50 is 25.1 µM [falling, single point].

With CN(C)c1ccc(N/C=C/C(=O)c2ccccc2)cc1 as the molecule, how does the AC50 read?
Its AC50 is 0.316 µM [falling, full curve].

With COC(=O)c1ccccc1NC(=O)Cn1nnc2sc(-c3ccccc3)cc2c1=O as the molecule, how does the AC50 read?
Its AC50 is 15.8 µM [falling, single point].

Which AC50 does the source give for COc1ccc(-c2nc(-c3ccccc3)c(-c3ccc(O)cc3)[nH]2)cc1 here?
Its AC50 is 15.8 µM [falling, partial curve].

With CC1=CC(C)(C)Nc2ccc(OC(=O)c3ccco3)cc21 as the molecule, how does the AC50 read?
The AC50 was 6.31 µM [falling, full curve].

For COc1ccccc1C(=O)Nc1nc(-c2ccccc2)ns1, which AC50 is on record?
The AC50 was 25.1 µM [falling, partial curve].

With COc1cccc(C(=O)Nc2ccc(NC(C)=O)cn2)c1 as the molecule, how does the AC50 read?
The AC50 was 12.6 µM [falling, partial curve].

With COc1ccc(Cn2c(C(=O)O)c(CNC3CCCCCC3)c3ccc(OC)cc32)cc1 as the molecule, how does the AC50 read?
Its AC50 is 39.8 µM [falling, single point].

With O=C(/C=C/c1ccc(F)cc1)Nc1nc2n(n1)C(c1ccc(Cl)cc1)C=C(c1ccccc1)N2 (stereo not drawn) as the molecule, how does the AC50 read?
The AC50 was 25.1 µM [falling, single point].

For Cc1ccc2sc(N3CCN(C(=O)CCS(=O)(=O)c4ccc(F)cc4)CC3)nc2c1C, which AC50 is on record?
The AC50 was 39.8 µM [falling, single point].

With CCOC(=O)c1ccc(NC(=O)c2ncn(-c3ccccc3)n2)cc1 as the molecule, how does the AC50 read?
The AC50 was 0.501 µM [falling, full curve].
